Some of the results follow.
Legend:
Experiment in all cases: log2 fold change, soluble protein after heating vs DMSO (PISA); higher = thermal stabilisation; K562 cells, 10 uM, 30 min; active = over 0.2 and 3.5 SD of the protein, either way, in both replicates (recomputed)
[1] = compound: C1=CC=C(C=C1)[C@H](COC2=CC3=C(C=C2)NC(=O)N3)NC(=O)C4=CC=CN(C4=O)CC5=CC(=C(C=C5)F)F
In short: (§1)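 Aliquots of K562 cells (2×10^6 cells/mL) treated with 10 μM compound for 30 min were heated for 3 min over 48°C-58°C. After pooling and extraction in PBS with 0.5% NP-40 at 4°C, soluble protein from a 21,000xg, 90 min spin was quantified by TMTpro 16plex LC-MS/MS with channel sums equalised. Thermal stability is expressed against control samples, from duplicates, as a log2 fold change.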

Amino acid sequences for entries named in this document (tags omitted). A change or cut given only in a name is not applied to a line headed by its entry.
UniProt Q8WXE1: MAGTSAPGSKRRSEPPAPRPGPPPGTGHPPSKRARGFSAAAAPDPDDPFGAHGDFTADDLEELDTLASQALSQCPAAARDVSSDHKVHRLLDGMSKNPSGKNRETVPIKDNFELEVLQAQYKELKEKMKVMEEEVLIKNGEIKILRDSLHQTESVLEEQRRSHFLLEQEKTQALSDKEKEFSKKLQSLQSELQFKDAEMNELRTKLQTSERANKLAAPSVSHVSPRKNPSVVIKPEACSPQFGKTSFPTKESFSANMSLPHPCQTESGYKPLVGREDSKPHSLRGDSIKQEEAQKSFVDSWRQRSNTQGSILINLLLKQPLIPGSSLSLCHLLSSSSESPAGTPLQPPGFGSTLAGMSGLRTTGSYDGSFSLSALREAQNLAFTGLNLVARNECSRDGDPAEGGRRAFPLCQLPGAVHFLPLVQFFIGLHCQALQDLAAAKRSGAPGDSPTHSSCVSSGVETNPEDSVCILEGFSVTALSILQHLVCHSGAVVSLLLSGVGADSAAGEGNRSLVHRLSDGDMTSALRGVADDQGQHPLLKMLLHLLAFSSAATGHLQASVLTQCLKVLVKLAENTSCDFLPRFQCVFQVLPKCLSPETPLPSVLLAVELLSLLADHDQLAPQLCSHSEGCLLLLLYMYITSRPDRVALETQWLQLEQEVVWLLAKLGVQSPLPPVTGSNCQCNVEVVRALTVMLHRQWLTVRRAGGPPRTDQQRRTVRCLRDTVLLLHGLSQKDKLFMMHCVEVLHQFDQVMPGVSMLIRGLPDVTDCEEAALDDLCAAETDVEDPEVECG
UniProt Q96G01: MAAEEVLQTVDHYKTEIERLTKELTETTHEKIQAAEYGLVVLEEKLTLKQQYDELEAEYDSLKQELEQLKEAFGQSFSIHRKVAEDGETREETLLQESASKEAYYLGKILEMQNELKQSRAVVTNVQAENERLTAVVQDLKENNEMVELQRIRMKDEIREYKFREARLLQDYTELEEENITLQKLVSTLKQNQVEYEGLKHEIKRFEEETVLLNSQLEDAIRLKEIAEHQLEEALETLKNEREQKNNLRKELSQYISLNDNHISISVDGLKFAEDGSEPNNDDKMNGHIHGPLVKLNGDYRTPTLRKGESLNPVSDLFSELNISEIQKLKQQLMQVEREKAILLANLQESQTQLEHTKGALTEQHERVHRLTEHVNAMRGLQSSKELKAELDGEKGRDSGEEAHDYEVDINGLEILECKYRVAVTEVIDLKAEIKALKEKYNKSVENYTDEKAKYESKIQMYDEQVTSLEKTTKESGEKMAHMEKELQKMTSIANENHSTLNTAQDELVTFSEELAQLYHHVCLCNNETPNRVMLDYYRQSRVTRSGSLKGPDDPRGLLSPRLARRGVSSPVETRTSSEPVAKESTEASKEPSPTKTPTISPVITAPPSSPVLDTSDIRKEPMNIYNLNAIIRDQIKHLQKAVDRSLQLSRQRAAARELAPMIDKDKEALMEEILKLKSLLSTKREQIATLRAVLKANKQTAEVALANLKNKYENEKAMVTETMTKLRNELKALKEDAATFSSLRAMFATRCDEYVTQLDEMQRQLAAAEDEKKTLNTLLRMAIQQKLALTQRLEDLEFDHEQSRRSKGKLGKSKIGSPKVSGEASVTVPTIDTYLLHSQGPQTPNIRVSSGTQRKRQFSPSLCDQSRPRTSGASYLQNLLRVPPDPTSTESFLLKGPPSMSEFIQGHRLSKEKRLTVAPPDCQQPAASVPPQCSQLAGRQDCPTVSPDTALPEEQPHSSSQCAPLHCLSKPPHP
UniProt P25311: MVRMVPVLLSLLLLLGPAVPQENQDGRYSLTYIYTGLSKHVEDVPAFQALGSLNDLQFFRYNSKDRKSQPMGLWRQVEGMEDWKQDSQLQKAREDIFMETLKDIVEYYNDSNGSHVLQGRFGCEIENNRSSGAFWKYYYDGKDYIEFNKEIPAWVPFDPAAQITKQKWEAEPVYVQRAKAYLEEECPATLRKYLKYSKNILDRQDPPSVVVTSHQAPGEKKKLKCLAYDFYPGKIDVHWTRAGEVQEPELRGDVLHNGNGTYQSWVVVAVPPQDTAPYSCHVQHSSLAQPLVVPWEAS
UniProt Q9NZS9: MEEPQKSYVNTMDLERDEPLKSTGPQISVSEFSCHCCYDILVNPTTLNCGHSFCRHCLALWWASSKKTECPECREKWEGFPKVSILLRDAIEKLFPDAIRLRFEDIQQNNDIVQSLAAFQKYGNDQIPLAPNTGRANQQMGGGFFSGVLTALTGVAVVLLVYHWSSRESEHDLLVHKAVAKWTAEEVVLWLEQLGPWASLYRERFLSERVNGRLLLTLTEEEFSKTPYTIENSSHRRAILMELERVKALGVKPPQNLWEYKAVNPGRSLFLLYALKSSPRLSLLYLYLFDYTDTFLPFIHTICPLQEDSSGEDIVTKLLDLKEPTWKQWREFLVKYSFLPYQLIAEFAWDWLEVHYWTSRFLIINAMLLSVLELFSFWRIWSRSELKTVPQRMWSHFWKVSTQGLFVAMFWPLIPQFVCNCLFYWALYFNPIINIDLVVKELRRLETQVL
UniProt O75882: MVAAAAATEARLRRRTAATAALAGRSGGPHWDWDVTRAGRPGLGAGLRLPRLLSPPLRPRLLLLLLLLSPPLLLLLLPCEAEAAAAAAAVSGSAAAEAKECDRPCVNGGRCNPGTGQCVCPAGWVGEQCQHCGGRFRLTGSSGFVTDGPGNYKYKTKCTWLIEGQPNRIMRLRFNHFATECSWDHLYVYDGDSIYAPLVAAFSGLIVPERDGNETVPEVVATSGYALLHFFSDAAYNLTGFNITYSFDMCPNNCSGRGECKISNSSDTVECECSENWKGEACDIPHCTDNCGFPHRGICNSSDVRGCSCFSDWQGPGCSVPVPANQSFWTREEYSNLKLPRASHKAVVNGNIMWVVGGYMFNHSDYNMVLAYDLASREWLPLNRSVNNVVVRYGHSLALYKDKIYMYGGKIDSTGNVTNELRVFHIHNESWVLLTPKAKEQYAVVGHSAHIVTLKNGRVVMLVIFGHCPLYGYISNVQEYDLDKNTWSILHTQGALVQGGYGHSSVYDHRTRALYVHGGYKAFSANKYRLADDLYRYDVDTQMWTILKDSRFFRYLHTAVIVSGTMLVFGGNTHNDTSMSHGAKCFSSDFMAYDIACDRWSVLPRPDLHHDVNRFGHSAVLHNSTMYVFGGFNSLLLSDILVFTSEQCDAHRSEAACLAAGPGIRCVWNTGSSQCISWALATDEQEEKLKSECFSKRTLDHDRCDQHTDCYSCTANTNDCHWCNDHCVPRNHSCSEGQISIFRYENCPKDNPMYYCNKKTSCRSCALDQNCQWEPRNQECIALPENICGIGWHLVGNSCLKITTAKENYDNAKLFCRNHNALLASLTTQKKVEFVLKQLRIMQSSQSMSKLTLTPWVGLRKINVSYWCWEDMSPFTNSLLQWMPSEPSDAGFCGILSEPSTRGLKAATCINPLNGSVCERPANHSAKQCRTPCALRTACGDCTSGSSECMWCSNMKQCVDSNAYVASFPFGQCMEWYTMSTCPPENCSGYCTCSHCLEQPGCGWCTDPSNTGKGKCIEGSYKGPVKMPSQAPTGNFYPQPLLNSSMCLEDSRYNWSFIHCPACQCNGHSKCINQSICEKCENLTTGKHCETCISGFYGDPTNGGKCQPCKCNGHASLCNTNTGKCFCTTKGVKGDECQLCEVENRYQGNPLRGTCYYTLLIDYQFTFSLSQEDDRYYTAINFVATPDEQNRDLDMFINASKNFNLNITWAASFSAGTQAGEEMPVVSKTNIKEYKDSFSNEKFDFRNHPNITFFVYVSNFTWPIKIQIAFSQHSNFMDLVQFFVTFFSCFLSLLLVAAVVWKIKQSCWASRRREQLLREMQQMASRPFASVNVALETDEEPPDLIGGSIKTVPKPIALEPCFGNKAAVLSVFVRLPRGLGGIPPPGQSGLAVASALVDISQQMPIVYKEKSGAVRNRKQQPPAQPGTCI
UniProt Q9NYM9: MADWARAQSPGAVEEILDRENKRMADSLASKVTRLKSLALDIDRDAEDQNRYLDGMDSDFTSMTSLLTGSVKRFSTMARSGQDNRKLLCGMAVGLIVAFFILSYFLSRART

[2] = compound: CC1=C(SC2=C1C(=N[C@H](C3=NN=C(N32)C)CC(=O)N)C4=CC=C(C=C4)Cl)C
In short: as §1

[3] = compound: CC1=C2C(=CC=C1)N=C(N(C2=O)C3=CC=CC=C3C)CN4C=NC5=C(N=CN=C54)N
In short: as §1

[4] = compound: Cc1sc2c(c1C)C(c1ccc(Cl)cc1)=N[C@@H](CC(=O)OC(C)(C)C)c1nnc(C)n1-2
In short: as §1

[5] = compound: c1ccc([C@@H]2C[C@H]2NC2CCNCC2)cc1
In short: as §1

Measured: log2 fold change

ATRIP (UniProt Q8WXE1)
inactive: [1] -0.025 | [2] 0.111 | [3] 0.066 | [4] 0.061 | [5] 0.061

BORCS5 (UniProt Q969J3)
inactive: [1] -0.017 | [2] 0.005 | [3] -0.13 | [4] -0.076 | [5] 0.022

BICD1 (UniProt Q96G01)
inactive: [1] -0.091 | [2] 0.057 | [3] 0.088 | [4] 0.024 | [5] -0.053

AZGP1 (UniProt P25311)
inactive: [1] -0.047 | [2] 0.117 | [3] -0.165 | [4] -0.487 | [5] -0.186

BFAR (UniProt Q9NZS9)
inactive: [3] 0.063

BPNT1 (UniProt A6NF51)
inactive: [1] -0.048 | [3] -0.078 | [4] 0.056

ATRN (UniProt O75882)
inactive: [1] -0.011 | [2] -0.031 | [3] 0.027 | [4] -0.055 | [5] 0.006

BET1L (UniProt Q9NYM9)
inactive: [2] 0.115 | [3] 0.157 | [4] -0.09 | [5] -0.007
